Results: paper PMC10611586
No constants are given. Whether binding was seen depends on the method and setting. Binding seen in cells or lysates may run through a third protein. These calls come from enrichment with a bait or labelling near it, and not all partners need be listed. A no says only that the protein was not detected with the bait.

B1: endogenous USP36 (enzyme, UniProt Q9P275 1-1123)
chain: MPIVDKLKEALKPGRKDSADDGELGKLLASSAKKVLLQKIEFEPASKSFSYQLEALKSKYVLLNPKTEGASRHKSGDDPPARRQGSEHTYESCGDGVPAPQKVLFPTERLSLRWERVFRVGAGLHNLGNTCFLNATIQCLTYTPPLANYLLSKEHARSCHQGSFCMLCVMQNHIVQAFANSGNAIKPVSFIRDLKKIARHFRFGNQEDAHEFLRYTIDAMQKACLNGCAKLDRQTQATTLVHQIFGGYLRSRVKCSVCKSVSDTYDPYLDVALEIRQAANIVRALELFVKADVLSGENAYMCAKCKKKVPASKRFTIHRTSNVLTLSLKRFANFSGGKITKDVGYPEFLNIRPYMSQNNGDPVMYGLYAVLVHSGYSCHAGHYYCYVKASNGQWYQMNDSLVHSSNVKVVLNQQAYVLFYLRIPGSKKSPEGLISRTGSSSLPGRPSVIPDHSKKNIGNGIISSPLTGKRQDSGTMKKPHTTEEIGVPISRNGSTLGLKSQNGCIPPKLPSGSPSPKLSQTPTHMPTILDDPGKKVKKPAPPQHFSPRTAQGLPGTSNSNSSRSGSQRQGSWDSRDVVLSTSPKLLATATANGHGLKGNDESAGLDRRGSSSSSPEHSASSDSTKAPQTPRSGAAHLCDSQETNCSTAGHSKTPPSGADSKTVKLKSPVLSNTTTEPASTMSPPPAKKLALSAKKASTLWRATGNDLRPPPPSPSSDLTHPMKTSHPVVASTWPVHRARAVSPAPQSSSRLQPPFSPHPTLLSSTPKPPGTSEPRSCSSISTALPQVNEDLVSLPHQLPEASEPPQSPSEKRKKTFVGEPQRLGSETRLPQHIREATAAPHGKRKRKKKKRPEDTAASALQEGQTQRQPGSPMYRREGQAQLPAVRRQEDGTQPQVNGQQVGCVTDGHHASSRKRRRKGAEGLGEEGGLHQDPLRHSCSPMGDGDPEAMEESPRKKKKKKRKQETQRAVEEDGHLKCPRSAKPQDAVVPESSSCAPSANGWCPGDRMGLSQAPPVSWNGERESDVVQELLKYSSDKAYGRKVLTWDGKMSAVSQDAIEDSRQARTETVVDDWDEEFDRGKEKKIKKFKREKRRNFNAFQKLQTRRNFWSVTHPAKAASLSYRR
B2: endogenous USP48 (enzyme, UniProt Q86UV5 1-1035)
chain: MAPRLQLEKAAWRWAETVRPEEVSQEHIETAYRIWLEPCIRGVCRRNCKGNPNCLVGIGEHIWLGEIDENSFHNIDDPNCERRKKNSFVGLTNLGATCYVNTFLQVWFLNLELRQALYLCPSTCSDYMLGDGIQEEKDYEPQTICEHLQYLFALLQNSNRRYIDPSGFVKALGLDTGQQQDAQEFSKLFMSLLEDTLSKQKNPDVRNIVQQQFCGEYAYVTVCNQCGRESKLLSKFYELELNIQGHKQLTDCISEFLKEEKLEGDNRYFCENCQSKQNATRKIRLLSLPCTLNLQLMRFVFDRQTGHKKKLNTYIGFSEILDMEPYVEHKGGSYVYELSAVLIHRGVSAYSGHYIAHVKDPQSGEWYKFNDEDIEKMEGKKLQLGIEEDLAEPSKSQTRKPKCGKGTHCSRNAYMLVYRLQTQEKPNTTVQVPAFLQELVDRDNSKFEEWCIEMAEMRKQSVDKGKAKHEEVKELYQRLPAGAEPYEFVSLEWLQKWLDESTPTKPIDNHACLCSHDKLHPDKISIMKRISEYAADIFYSRYGGGPRLTVKALCKECVVERCRILRLKNQLNEDYKTVNNLLKAAVKGSDGFWVGKSSLRSWRQLALEQLDEQDGDAEQSNGKMNGSTLNKDESKEERKEEEELNFNEDILCPHGELCISENERRLVSKEAWSKLQQYFPKAPEFPSYKECCSQCKILEREGEENEALHKMIANEQKTSLPNLFQDKNRPCLSNWPEDTDVLYIVSQFFVEEWRKFVRKPTRCSPVSSVGNSALLCPHGGLMFTFASMTKEDSKLIALIWPSEWQMIQKLFVVDHVIKITRIEVGDVNPSETQYISEPKLCPECREGLLCQQQRDLREYTQATIYVHKVVDNKKVMKDSAPELNVSSSETEEDKEEAKPDGEKDPDFNQSNGGTKRQKISHQNYIAYQKQVIRRSMRHRKVRGEKALLVSANQTLKELKIQIMHAFSVAPFDQNLSIDGKILSDDCATLGTLGVIPESVILLKADEPIADYAAMDDVMQVCMPEEGFKGTGLLGH

Target: HA–Fubi^C57A-VS (human) (UniProt P62861)
Assay: affinity purification with mass spectrometry; HeLa lysate (1 mg protein) incubated with 5 µg HA-tagged VS probe for 1 h at 37 °C, compared with lysate pretreated with 10 mM IAA; covalent conjugates enriched on anti-HA affinity gel; label-free quantification; only the target purified

Binder	binding
B1	binds
B2	no binding
